{"source": "paper PMC11020826", "key": {"nYFP-PYE (Arabidopsis)": {"target": "T1, nYFP-PYE (Arabidopsis) (UniProt Q9SN74)", "T1 sequence": "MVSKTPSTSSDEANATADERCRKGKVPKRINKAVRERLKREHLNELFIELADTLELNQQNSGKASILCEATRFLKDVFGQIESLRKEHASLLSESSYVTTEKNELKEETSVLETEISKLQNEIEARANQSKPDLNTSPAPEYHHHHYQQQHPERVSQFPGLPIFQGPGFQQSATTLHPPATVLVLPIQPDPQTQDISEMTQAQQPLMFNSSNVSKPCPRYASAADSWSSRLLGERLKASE", "experiment": "split reporter; BiFC 2in1 vector system (pBiFC-2in1-NN, N-terminal nYFP and cYFP fusions) in transiently transformed tobacco leaf epidermis cells; mRFP as transformation control"}, "nYFP-ILR3 (Arabidopsis)": {"target": "T2, nYFP-ILR3 (Arabidopsis) (UniProt Q9FH37)", "T2 sequence": "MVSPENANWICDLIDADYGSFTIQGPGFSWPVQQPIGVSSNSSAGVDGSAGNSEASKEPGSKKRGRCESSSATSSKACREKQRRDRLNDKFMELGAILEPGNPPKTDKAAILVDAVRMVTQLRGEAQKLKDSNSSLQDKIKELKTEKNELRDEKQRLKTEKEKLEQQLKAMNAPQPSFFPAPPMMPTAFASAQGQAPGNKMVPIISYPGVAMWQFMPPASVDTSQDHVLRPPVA", "experiment": "split reporter; BiFC 2in1 vector system (pBiFC-2in1-NN, N-terminal nYFP and cYFP fusions) in transiently transformed tobacco leaf epidermis cells; mRFP as transformation control"}, "[1]": {"target": "T3, POPEYE (PYE), full length, yeast two-hybrid fusion (Arabidopsis) (UniProt Q9SN74)", "T3 sequence": "T1 sequence", "experiment": "two-hybrid; targeted Y2H in yeast; GAL4-AD and GAL4-BD fusions; 10-fold dilution series spotted on SD-LWH + 2 mM 3-AT"}, "[2]": {"target": "T4, PYE-ΔbHLH-mCherry (Arabidopsis) (UniProt Q9SN74)", "T4 sequence": "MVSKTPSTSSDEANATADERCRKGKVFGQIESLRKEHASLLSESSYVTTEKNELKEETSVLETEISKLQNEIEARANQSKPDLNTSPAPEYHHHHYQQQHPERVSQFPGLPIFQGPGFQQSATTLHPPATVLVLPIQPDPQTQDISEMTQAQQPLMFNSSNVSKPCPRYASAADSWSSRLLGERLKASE", "experiment": "FRET or BRET; FRET-APB (acceptor photobleaching) in nuclei of transiently transformed tobacco leaf epidermis cells; GFP donor, mCherry acceptor; ß-estradiol-induced; n = 15 nuclei; negative control donor only"}, "[3]": {"target": "T5, PYE-mCherry (Arabidopsis) (UniProt Q9SN74)", "T5 sequence": "T1 sequence", "experiment": "FRET or BRET; FRET-APB (acceptor photobleaching) in nuclei of transiently transformed tobacco leaf epidermis cells; GFP donor, mCherry acceptor; ß-estradiol-induced; n = 15 nuclei; negative control donor only"}, "[4]": {"target": "T6, PYE-C-mCherry (Arabidopsis) (UniProt Q9SN74)", "T6 sequence": "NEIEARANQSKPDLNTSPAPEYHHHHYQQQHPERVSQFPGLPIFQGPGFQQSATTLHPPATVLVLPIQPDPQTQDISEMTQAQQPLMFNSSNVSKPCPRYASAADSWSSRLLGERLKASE", "experiment": "FRET or BRET; FRET-APB (acceptor photobleaching) in nuclei of transiently transformed tobacco leaf epidermis cells; GFP donor, mCherry acceptor; ß-estradiol-induced; n = 15 nuclei; negative control donor only"}, "[5]": {"target": "T7, PYE-N-mCherry (Arabidopsis) (UniProt Q9SN74)", "T7 sequence": "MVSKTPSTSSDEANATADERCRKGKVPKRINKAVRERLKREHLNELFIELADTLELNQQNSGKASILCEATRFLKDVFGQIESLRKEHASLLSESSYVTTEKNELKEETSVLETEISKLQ", "experiment": "FRET or BRET; FRET-APB (acceptor photobleaching) in nuclei of transiently transformed tobacco leaf epidermis cells; GFP donor, mCherry acceptor; ß-estradiol-induced; n = 15 nuclei; negative control donor only"}}, "note": "Results are given in words; binding and its absence hold for the method and conditions named. For some assays here: In cells and extracts the contact can be indirect. For some assays here: Binding can be weak; no strength is given. For some assays here: Sequences can lack the tags named with a protein.", "data": [{"substance": "cYFP-OLV-ΔTGIYY (Arabidopsis) (domain or fragment)", "values": [{"measurement": "binding", "setting": "nYFP-PYE (Arabidopsis)", "value": "no binding"}]}, {"substance": "cYFP-OLV (Arabidopsis)", "values": [{"measurement": "binding", "setting": "nYFP-ILR3 (Arabidopsis)", "value": "no binding"}, {"measurement": "binding", "setting": "nYFP-PYE (Arabidopsis)", "value": "binds"}]}, {"substance": "OLV-ΔTGIYY, yeast two-hybrid fusion (Arabidopsis) (domain or fragment)", "values": [{"measurement": "binding", "setting": "[1]", "value": "no binding"}]}, {"substance": "OLV-GFP (Arabidopsis)", "values": [{"measurement": "binding", "setting": "[2]", "value": "binds"}, {"measurement": "binding", "setting": "[3]", "value": "binds"}, {"measurement": "binding", "setting": "[4]", "value": "binds"}, {"measurement": "binding", "setting": "[5]", "value": "binds"}]}]}
